# Values quoted from earlier work in patent US10010502B2, “Device that delivers a sustained low-dose of a myopia-suppressing drug, while preserving pupillary function and accommodation” (AMORPHEX THERAPEUTICS LLC, priority 2015, dated 2018).
# Read-outs that look alike come from different tables or passages of the source.
# Tested on: myopia progression
compound,measurement,setting,value
CN1[C@@H]2CC[C@H]1C[C@@H](OC(=O)C(CO)c1ccccc1)C2 (some centres unmarked) [atropine],children asking for tinted glasses,higher dose groups,> 60%
same,children asking for tinted glasses,lower dose study group,6%
